Assay results reported in the supplement of paper PMC10470496.
Structures can show the parent of a compound that is named as a salt. The list shows a part of the results. Single values are uncertain, as repeats are few or missing.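 The strains were three CDC resistance-bank clinical C. auris isolates from clades III, IV and I, cultured in RPMI-1640 at 35°C. Growth was background-corrected OD600 versus vehicle-only wells on the same plate. A hit needed >50% inhibition in two or more strains plus a plate-corrected B-score exceeding 0.1.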

Legend:
Test in all cases: growth relative to vehicle control (OD600 ratio) (fraction); higher = less inhibition
Settings in all cases: 24 h
C. auris AR-384 = system: C. auris AR-384
C. auris AR-386 = system: C. auris AR-386
C. auris AR-387 = system: C. auris AR-387

Row | Structure (SMILES) | growth (C. auris AR-384; 1 µM) | growth (C. auris AR-384; 10 µM) | growth (C. auris AR-386; 1 µM) | growth (C. auris AR-386; 10 µM) | growth (C. auris AR-387; 1 µM) | growth (C. auris AR-387; 10 µM)
1 | Cc1cc(/C=C/C#N)cc(C)c1Nc1ccnc(Nc2ccc(C#N)cc2)n1 [Rilpivirine] | 1.15 | 0.92 | 1.03 | 0.98 | 1.24 | 1.07
2 | COc1c(C)c2c(c(O)c1C/C=C(\C)CCC(=O)O)C(=O)OC2 [Mycophenolic acid] | 0.72 | 0.76 | 0.88 | 0.66 | 0.85 | 0.83
3 | CC(=O)NS(=O)(=O)c1ccc(N)cc1 [Sulfacetamide sodium salt hydrate] | 1.06 | 1.12 | 1.1 | 0.85 | 0.76 | 0.67
4 | c1ccc(C2CN3CCSC3=N2)cc1 (single isomer, unassigned; (-)) [(-)-Tetramisole] | 0.77 | 0.51 | 0.7 | 0.75 | 0.65 | 0.83
5 | COc1ccc(-c2ccc3cc(C(=O)O)ccc3c2)cc1C12CC3CC(CC(C3)C1)C2 [Adapalene] | 0.63 | 1.14 | 1.13 | 1.2 | 0.98 | 0.96
6 | CN1CCC(=C2c3ccccc3CCc3cccnc32)CC1 [Azatadine dimaleate] | 0.99 | 0.72 | 0.63 | 0.88 | 0.71 | 0.7
7 | N=C(N)c1ccc(OCCCCCOc2ccc(C(=N)N)cc2)cc1 [Pentamidine isethionate] | 0.82 | 0.2 | 0.49 | 0.14 | 0.87 | 0.77
8 | C[C@H]1COc2c(C3(N)CC3)c(F)cc3c(=O)c(C(=O)O)cn1c23 [Pazufloxacin mesylate] | 0.8 | 0.57 | 0.79 | 0.62 | 0.57 | 0.74
9 | NC(=O)c1nc(F)cnc1O [Favipiravir (T-705)] | 1.19 | 1.14 | 0.94 | 1.16 | 0.84 | 0.83
10 | C[C@@H](O)[C@H]1C(=O)N2C(C(=O)O)=C(S[C@@H]3CN[C@H](CNS(N)(=O)=O)C3)[C@H](C)[C@H]12 [Doripenem Hydrate] | 1.17 | 1.29 | 1.3 | 0.55 | 0.81 | 0.65
11 | CN(C)CCC(c1ccc(Cl)cc1)c1ccccn1 (stereo not drawn) [Chlorpheniramine Maleate] | 0.72 | 0.83 | 1.02 | 0.83 | 0.69 | 0.82
12 | CC(C)(C)NC(=O)N[C@H](C(=O)N1C[C@H]2[C@@H]([C@H]1C(=O)NC(CC1CCC1)C(=O)C(N)=O)C2(C)C)C(C)(C)C (stereo partly drawn) [Boceprevir] | 0.87 | 0.87 | 0.76 | 1.05 | 1.15 | 1.09
13 | C[N+](C)(C)CCOC(N)=O [Carbachol] | 1.23 | 1.29 | 1.01 | 0.9 | 0.98 | 0.98
14 | COC(=O)[C@]12CCC(C)(C)C[C@H]1[C@H]1C(=O)C=C3[C@@]4(C)C=C(C#N)C(=O)C(C)(C)[C@@H]4CC[C@@]3(C)[C@]1(C)CC2 [Bardoxolone Methyl] | 1.3 | 1.24 | 1.27 | 0.93 | 1.04 | 1.11
15 | C[C@H](Oc1cc(-c2cnn(C3CCNCC3)c2)cnc1N)c1c(Cl)ccc(F)c1Cl [(S)-crizotinib] | 1.15 | 0.93 | 1.09 | 1.11 | 0.76 | 1.12
16 | O=C(NS(=O)(=O)c1ccc(Br)s1)c1ccc(Cl)cc1Cl [Tasisulam] | 1.06 | 1.31 | 1.05 | 1.12 | 0.9 | 0.97
17 | CC(C)C[C@H](NC(=O)CNC(=O)c1cc(Cl)ccc1Cl)B1OC(=O)C(CC(=O)O)(CC(=O)O)O1 [Ixazomib Citrate (MLN9708)] | 0.76 | 0.86 | 0.68 | 0.84 | 0.82 | 0.94
18 | Cc1cc(Nc2cc(N3CCN(C)CC3)nc(Sc3ccc(NC(=O)C4CC4)cc3)n2)n[nH]1 [Tozasertib (VX-680, MK-0457)] | 0.83 | 0.88 | 0.91 | 0.75 | 0.9 | 0.91
19 | CCOC(=O)C1=C(COCCN)NC(C)=C(C(=O)OC)C1c1ccccc1Cl (stereo not drawn) [Amlodipine Besylate] | 1.23 | 1.03 | 0.98 | 1.19 | 1.1 | 1.14
20 | Cc1nccn1CC1CCc2c(c3ccccc3n2C)C1=O (stereo not drawn) [Ondansetron HCl] | 0.68 | 0.93 | 0.89 | 0.97 | 0.75 | 0.95
21 | CCN(CC)Cc1cc(Nc2ccnc3cc(Cl)ccc23)ccc1O [Amodiaquine dihydrochloride dihydrate] | 1.08 | 0.83 | 0.79 | 0.85 | 0.78 | 1.01
22 | CNS(=O)(=O)CCc1ccc2[nH]cc(C3CCN(C)CC3)c2c1 [Naratriptan HCl] | 1.32 | 0.77 | 0.91 | 0.99 | 0.97 | 0.93
23 | CC(C)(C)C(=O)OCOP(=O)(COCCn1cnc2c(N)ncnc21)OCOC(=O)C(C)(C)C [Adefovir Dipivoxil] | 1.1 | 1.22 | 1.25 | 1.33 | 1.13 | 1.27

2 compounds picked at random from those above, as already listed:
Row | Structure (SMILES) | growth (C. auris AR-384; 1 µM) | growth (C. auris AR-384; 10 µM) | growth (C. auris AR-386; 1 µM) | growth (C. auris AR-386; 10 µM) | growth (C. auris AR-387; 1 µM) | growth (C. auris AR-387; 10 µM)
10 | C[C@@H](O)[C@H]1C(=O)N2C(C(=O)O)=C(S[C@@H]3CN[C@H](CNS(N)(=O)=O)C3)[C@H](C)[C@H]12 [Doripenem Hydrate] | 1.17 | 1.29 | 1.3 | 0.55 | 0.81 | 0.65
19 | CCOC(=O)C1=C(COCCN)NC(C)=C(C(=O)OC)C1c1ccccc1Cl (stereo not drawn) [Amlodipine Besylate] | 1.23 | 1.03 | 0.98 | 1.19 | 1.1 | 1.14
